Paper PMC12135372
These are yes or no findings as the source states them, for the method shown. Some binding calls cover weakened binding; strength is not graded here. For some assays here: Where a sequence is shown, tags or fusion partners need not be part of it.

T1: Danio rerio DDX1, full length, His6-MBP fusion (subunit of Dr-tRNA-LC-FL) (Danio rerio) (UniProt F1R2L8)
T1 sequence: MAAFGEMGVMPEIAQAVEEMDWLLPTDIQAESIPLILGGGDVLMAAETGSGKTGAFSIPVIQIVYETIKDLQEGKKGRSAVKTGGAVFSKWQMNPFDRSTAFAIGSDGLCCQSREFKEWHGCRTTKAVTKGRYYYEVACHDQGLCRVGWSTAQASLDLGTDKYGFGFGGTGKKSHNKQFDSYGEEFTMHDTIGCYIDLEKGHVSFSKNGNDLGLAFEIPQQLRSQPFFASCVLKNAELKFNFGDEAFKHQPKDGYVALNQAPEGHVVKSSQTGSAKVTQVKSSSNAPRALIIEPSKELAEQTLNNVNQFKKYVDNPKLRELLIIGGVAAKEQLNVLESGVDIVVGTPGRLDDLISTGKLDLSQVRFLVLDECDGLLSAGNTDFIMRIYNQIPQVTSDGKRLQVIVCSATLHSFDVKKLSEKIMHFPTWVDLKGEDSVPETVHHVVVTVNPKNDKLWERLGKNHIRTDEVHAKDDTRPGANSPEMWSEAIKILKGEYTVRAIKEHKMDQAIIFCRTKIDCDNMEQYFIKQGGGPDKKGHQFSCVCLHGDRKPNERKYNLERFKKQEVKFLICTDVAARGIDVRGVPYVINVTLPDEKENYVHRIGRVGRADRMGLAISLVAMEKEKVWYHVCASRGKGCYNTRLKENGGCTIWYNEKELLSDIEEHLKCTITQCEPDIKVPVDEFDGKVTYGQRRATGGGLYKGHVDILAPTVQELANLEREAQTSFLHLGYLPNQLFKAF

T2: Danio rerio His6-RTCB (subunit of Dr-tRNA-LC-TR) (Danio rerio) (UniProt Q6NZS4)
T2 sequence: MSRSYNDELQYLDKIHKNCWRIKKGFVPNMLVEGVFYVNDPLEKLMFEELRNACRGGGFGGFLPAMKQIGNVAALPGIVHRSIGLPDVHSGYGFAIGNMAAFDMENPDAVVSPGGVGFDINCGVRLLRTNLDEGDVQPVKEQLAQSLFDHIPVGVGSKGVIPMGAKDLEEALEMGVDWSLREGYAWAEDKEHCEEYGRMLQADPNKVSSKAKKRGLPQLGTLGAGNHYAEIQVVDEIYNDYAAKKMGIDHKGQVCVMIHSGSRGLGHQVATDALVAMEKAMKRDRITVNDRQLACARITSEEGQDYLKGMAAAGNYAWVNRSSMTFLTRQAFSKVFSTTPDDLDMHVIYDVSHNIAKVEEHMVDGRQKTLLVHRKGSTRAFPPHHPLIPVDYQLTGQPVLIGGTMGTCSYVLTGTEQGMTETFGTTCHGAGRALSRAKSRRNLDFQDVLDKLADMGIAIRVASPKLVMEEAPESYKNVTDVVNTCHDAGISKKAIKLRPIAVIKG

T3: Danio rerio CGI99 (subunit of Dr-tRNA-LC, FL and TR forms) (Danio rerio) (UniProt Q7ZUH1)
T3 sequence: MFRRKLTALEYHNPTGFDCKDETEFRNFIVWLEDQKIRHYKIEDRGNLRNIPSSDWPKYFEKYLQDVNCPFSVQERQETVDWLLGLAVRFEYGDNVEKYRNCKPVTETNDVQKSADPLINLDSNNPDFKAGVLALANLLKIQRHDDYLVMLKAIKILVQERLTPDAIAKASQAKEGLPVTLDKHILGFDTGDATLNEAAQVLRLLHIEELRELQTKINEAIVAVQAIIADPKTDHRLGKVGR


Columns and labels:
[1] = biological target: T1, Danio rerio DDX1, full length, His6-MBP fusion (subunit of Dr-tRNA-LC-FL) (Danio rerio); assay: co-expression and co-purification (Ni affinity chromatography, then gel filtration); all five subunits co-expressed in Sf9 cells; complex captured on a HisTrap column via His6-MBP-DDX1, tag removed with TEV, Superose 6 Increase gel filtration; 25 mM Hepes pH 7.5, 150 mM NaCl, 5% glycerol
[2] = biological target: T2, Danio rerio His6-RTCB (subunit of Dr-tRNA-LC-TR) (Danio rerio); assay: cryo-EM structure; Dr-tRNA-LC-TR at 0.95 mg/ml with 2 mM MnCl2, 2 mM GTP and twofold molar excess of tRNAIle (RNA not seen in the map); 3.3 Å reconstruction, atomic model built; both purified
[3] = biological target: T3, Danio rerio CGI99 (subunit of Dr-tRNA-LC, FL and TR forms) (Danio rerio); assay: as above

Row | binding [1] | binding [2] | binding [3] | Binder
1 | binds | binds |  | Danio rerio CGI99 (subunit of Dr-tRNA-LC, FL and TR forms) (protein, UniProt Q7ZUH1 1-242) MFRRKLTALEYHNPTGFDCKDETEFRNFIVWLEDQKIRHYKIEDRGNLRNIPSSDWPKYFEKYLQDVNCPFSVQERQETVDWLLGLAVRFEYGDNVEKYRNCKPVTETNDVQKSADPLINLDSNNPDFKAGVLALANLLKIQRHDDYLVMLKAIKILVQERLTPDAIAKASQAKEGLPVTLDKHILGFDTGDATLNEAAQVLRLLHIEELRELQTKINEAIVAVQAIIADPKTDHRLGKVGR
2 |  | binds | binds | RRATGGGLYKGHVDILAPTVQELANLEREAQTSFLHLGYLPNQLFKAF (domain or fragment, UniProt F1R2L8 693-740) [Danio rerio DDX1 C terminus, residues 693-740 (subunit of Dr-tRNA-LC-TR)]
3 | binds |  |  | Danio rerio RTCB, untagged (subunit of Dr-tRNA-LC-FL) (enzyme, UniProt Q6NZS4 1-505) MSRSYNDELQYLDKIHKNCWRIKKGFVPNMLVEGVFYVNDPLEKLMFEELRNACRGGGFGGFLPAMKQIGNVAALPGIVHRSIGLPDVHSGYGFAIGNMAAFDMENPDAVVSPGGVGFDINCGVRLLRTNLDEGDVQPVKEQLAQSLFDHIPVGVGSKGVIPMGAKDLEEALEMGVDWSLREGYAWAEDKEHCEEYGRMLQADPNKVSSKAKKRGLPQLGTLGAGNHYAEIQVVDEIYNDYAAKKMGIDHKGQVCVMIHSGSRGLGHQVATDALVAMEKAMKRDRITVNDRQLACARITSEEGQDYLKGMAAAGNYAWVNRSSMTFLTRQAFSKVFSTTPDDLDMHVIYDVSHNIAKVEEHMVDGRQKTLLVHRKGSTRAFPPHHPLIPVDYQLTGQPVLIGGTMGTCSYVLTGTEQGMTETFGTTCHGAGRALSRAKSRRNLDFQDVLDKLADMGIAIRVASPKLVMEEAPESYKNVTDVVNTCHDAGISKKAIKLRPIAVIKG
